# Library screen at single concentrations

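Cell assay of Leishmania donovani living inside macrophages; the read-out is not stated. Tested at 30 µM. Higher reads as stronger inhibition (inferred: compounds with an IC50 in retests scored well above the rest). Of about 69,000 compounds tested this way, about 1,000 (1.5%) reached 50% or more in at least one test.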

The filed quantity is “Percent Effect” (%).
The record does not define 0% and 100%; most values in the screen are far below 50% and negative numbers occur (in some assays of this library far below -100).
The compounds are a random part of those screened.
Two or more numbers in one place are separate tests of the same structure; such repeats can differ widely.

{"structure": "COc1ccc(C(=O)NC2COc3ccccc3C2)cc1OCC(=O)O", "stereo": "centres unmarked", "percent effect": 13.18}
{"structure": "O=C(NC1CCc2c(ccc(=O)n2CC2CC2)C1)c1cscn1", "stereo": "centres unmarked", "percent effect": -1.204}
{"structure": "CCS(=O)(=O)N1CCC(CSc2ccccc2)C1", "stereo": "centres unmarked", "percent effect": -13.36}
{"structure": "O=C(Cc1ccccc1)N1Cc2nccn2CC(CN2CCCC2)C1.O=C(O)C(F)(F)F", "stereo": "centres unmarked", "percent effect": 11.28}
{"structure": "Clc1ccc(-c2c[nH]c([C@@H]3COCCN3)n2)cc1", "percent effect": -17.28}
{"structure": "OCc1ccc(CNc2ccccc2CN2CCC(O)CC2)o1", "percent effect": 8.24}
{"structure": "CC(=O)N(C)CC(=O)NC1(c2ccc(F)cc2)CCCC1", "percent effect": 12.35}
{"structure": "COc1cc(-c2ccc(F)c3c2OC(CN)C3)cc(OC)c1OC", "stereo": "centres unmarked", "percent effect": 19.84}
{"structure": "N#Cc1ccc(NC2CCN(Cc3ccccn3)CC2)c(F)c1", "percent effect": -12.41}
{"structure": "CS(=O)(=O)N1CCCCC12CCN(C(=O)c1ccccc1)C2", "stereo": "centres unmarked", "percent effect": -19.17}
{"structure": "CN1CCCN(c2cnn(Cc3ccncc3)c(=O)c2)CC1", "percent effect": -0.648}
{"structure": "Cc1cc(N2CCC3(CCCN(C4CCOCC4)C3=O)C2)ccn1", "stereo": "centres unmarked", "percent effect": 13.01}
{"structure": "c1ccc(-n2cc(CN3CCCC3Cn3cccn3)nn2)cc1", "stereo": "centres unmarked", "percent effect": 19.59}
{"structure": "N[C@@H]1CC[C@H](C(=O)NCc2ccc3nonc3c2)C1", "percent effect": 34.92}
{"structure": "CC(C)(C)N1CCN(C(=O)c2cccnc2-n2cncn2)CC1", "percent effect": 31.63}
{"structure": "CCc1nnc2n1CCN(C(=O)C(C)COCc1ccccc1)C2", "stereo": "centres unmarked", "percent effect": 23.32}
{"structure": "CC1(c2ccccc2)CCCN(Cc2nnc(-c3cccnc3)o2)C1", "stereo": "centres unmarked", "percent effect": 28.58}
{"structure": "CC(C)OCCC1CCCCN1S(N)(=O)=O", "stereo": "centres unmarked", "percent effect": -33.99}
{"structure": "CC1CN(CC(=O)Nc2ccncc2)CCN1Cc1nccn1C", "stereo": "centres unmarked", "percent effect": 29.68}
{"structure": "COC(=O)CNC(=O)C(C(C)C)n1cnc2cc(F)c(F)cc21", "stereo": "centres unmarked", "percent effect": 14.11}
{"structure": "CCC(O)CN1CCN(C(=O)Cc2c(C)nc(C)[nH]c2=O)CC1", "stereo": "centres unmarked", "percent effect": 9.422}
{"structure": "CC(C)c1nnc2n1CCN(C(=O)c1ccnc(N(C)C)c1)C2", "percent effect": 17.47}
{"structure": "Cc1noc(C)c1C(=O)N1CCC2(CC1)CC(Oc1ccccc1)CO2", "stereo": "centres unmarked", "percent effect": 23.29}
{"structure": "CC1c2ncc(CNC(=O)C3CC3)n2CCN1CC1CCC1.O=C(O)C(F)(F)F", "stereo": "centres unmarked", "percent effect": -13.12}
{"structure": "COC(=O)[C@@H]1CCCN1C(=O)c1cn(C/C=C/c2ccccc2)nn1", "percent effect": "-26.88 and -15.51"}
{"structure": "O=c1[nH]c(=O)n(CC(O)c2ccccc2Cl)cc1Cl", "stereo": "centres unmarked", "percent effect": -1.915}
{"structure": "COC[C@]1(O)CCN(Cc2cnc(N(C)C)nc2)CC1(C)C", "percent effect": -18.88}
{"structure": "CCOc1ccnc(N2CCN(C(=O)c3cccnc3O)CC2)n1", "percent effect": 22.24}
{"structure": "O=C(CCn1cncn1)NCCOc1cccc(Cl)c1", "percent effect": -12.3}
{"structure": "Cc1cc(CN2CCCC2)cc(Oc2nc(C)cnc2C)c1", "percent effect": 29.8}
{"structure": "Cc1cc(OCc2cccc(F)c2)ccc1NC(=O)C(C)NC(N)=O", "stereo": "centres unmarked", "percent effect": -3.024}
{"structure": "COc1ccc(CN2C[C@@H](F)[C@@H](OCc3nc4ccccc4[nH]3)C2)cn1", "percent effect": 18.15}
{"structure": "Cc1ccc(OCCC(=O)NC2CCc3nc(C)cn3C2)cc1", "stereo": "centres unmarked", "percent effect": 15.72}
{"structure": "O=C(c1cscn1)N1CCn2cnc(COCC3CC3)c2C1", "percent effect": "-2.632 and 12.36"}
{"structure": "CCc1nc(C2CCCN(C(=O)NC3CC3)C2)no1", "stereo": "centres unmarked", "percent effect": 13.85}

The first 3 entries again:

structure,percent effect
COc1ccc(C(=O)NC2COc3ccccc3C2)cc1OCC(=O)O (centres unmarked),13.18
O=C(NC1CCc2c(ccc(=O)n2CC2CC2)C1)c1cscn1 (centres unmarked),-1.204
CCS(=O)(=O)N1CCC(CSc2ccccc2)C1 (centres unmarked),-13.36

From ChEMBL document CHEMBL3988442, “University of Dundee, Small-Polar-MMV Screening Library” (2021).